Earlier results as cited in patent US9211510B2, “Method for producing nanoparticles by forced ultrathin film rotary processing” (M. Technique Co., Ltd., priority 2007, dated 2015).

Conditions: by heating to a temperature of 70° C. or more

Nc1nc2c(ncn2COCCO)c(=O)[nH]1 [aciclovir]
solubility in water: about 8 w/v %
